Here are results for 65 substances from article PMC10907362.

By UniProt entry, the sequences of proteins in these tests, tags left out. Where a name states a change or a piece, a line headed by the entry shows the natural chain unless it says otherwise. Chains listed by the source or under a name are the forms on record and can include a tag or linker.
UniProt Q03135: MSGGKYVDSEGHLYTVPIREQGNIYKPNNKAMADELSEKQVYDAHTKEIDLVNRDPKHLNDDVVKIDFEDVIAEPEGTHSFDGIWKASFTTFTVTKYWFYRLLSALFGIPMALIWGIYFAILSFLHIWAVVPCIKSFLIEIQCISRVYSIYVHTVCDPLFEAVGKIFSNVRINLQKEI
UniProt P15924: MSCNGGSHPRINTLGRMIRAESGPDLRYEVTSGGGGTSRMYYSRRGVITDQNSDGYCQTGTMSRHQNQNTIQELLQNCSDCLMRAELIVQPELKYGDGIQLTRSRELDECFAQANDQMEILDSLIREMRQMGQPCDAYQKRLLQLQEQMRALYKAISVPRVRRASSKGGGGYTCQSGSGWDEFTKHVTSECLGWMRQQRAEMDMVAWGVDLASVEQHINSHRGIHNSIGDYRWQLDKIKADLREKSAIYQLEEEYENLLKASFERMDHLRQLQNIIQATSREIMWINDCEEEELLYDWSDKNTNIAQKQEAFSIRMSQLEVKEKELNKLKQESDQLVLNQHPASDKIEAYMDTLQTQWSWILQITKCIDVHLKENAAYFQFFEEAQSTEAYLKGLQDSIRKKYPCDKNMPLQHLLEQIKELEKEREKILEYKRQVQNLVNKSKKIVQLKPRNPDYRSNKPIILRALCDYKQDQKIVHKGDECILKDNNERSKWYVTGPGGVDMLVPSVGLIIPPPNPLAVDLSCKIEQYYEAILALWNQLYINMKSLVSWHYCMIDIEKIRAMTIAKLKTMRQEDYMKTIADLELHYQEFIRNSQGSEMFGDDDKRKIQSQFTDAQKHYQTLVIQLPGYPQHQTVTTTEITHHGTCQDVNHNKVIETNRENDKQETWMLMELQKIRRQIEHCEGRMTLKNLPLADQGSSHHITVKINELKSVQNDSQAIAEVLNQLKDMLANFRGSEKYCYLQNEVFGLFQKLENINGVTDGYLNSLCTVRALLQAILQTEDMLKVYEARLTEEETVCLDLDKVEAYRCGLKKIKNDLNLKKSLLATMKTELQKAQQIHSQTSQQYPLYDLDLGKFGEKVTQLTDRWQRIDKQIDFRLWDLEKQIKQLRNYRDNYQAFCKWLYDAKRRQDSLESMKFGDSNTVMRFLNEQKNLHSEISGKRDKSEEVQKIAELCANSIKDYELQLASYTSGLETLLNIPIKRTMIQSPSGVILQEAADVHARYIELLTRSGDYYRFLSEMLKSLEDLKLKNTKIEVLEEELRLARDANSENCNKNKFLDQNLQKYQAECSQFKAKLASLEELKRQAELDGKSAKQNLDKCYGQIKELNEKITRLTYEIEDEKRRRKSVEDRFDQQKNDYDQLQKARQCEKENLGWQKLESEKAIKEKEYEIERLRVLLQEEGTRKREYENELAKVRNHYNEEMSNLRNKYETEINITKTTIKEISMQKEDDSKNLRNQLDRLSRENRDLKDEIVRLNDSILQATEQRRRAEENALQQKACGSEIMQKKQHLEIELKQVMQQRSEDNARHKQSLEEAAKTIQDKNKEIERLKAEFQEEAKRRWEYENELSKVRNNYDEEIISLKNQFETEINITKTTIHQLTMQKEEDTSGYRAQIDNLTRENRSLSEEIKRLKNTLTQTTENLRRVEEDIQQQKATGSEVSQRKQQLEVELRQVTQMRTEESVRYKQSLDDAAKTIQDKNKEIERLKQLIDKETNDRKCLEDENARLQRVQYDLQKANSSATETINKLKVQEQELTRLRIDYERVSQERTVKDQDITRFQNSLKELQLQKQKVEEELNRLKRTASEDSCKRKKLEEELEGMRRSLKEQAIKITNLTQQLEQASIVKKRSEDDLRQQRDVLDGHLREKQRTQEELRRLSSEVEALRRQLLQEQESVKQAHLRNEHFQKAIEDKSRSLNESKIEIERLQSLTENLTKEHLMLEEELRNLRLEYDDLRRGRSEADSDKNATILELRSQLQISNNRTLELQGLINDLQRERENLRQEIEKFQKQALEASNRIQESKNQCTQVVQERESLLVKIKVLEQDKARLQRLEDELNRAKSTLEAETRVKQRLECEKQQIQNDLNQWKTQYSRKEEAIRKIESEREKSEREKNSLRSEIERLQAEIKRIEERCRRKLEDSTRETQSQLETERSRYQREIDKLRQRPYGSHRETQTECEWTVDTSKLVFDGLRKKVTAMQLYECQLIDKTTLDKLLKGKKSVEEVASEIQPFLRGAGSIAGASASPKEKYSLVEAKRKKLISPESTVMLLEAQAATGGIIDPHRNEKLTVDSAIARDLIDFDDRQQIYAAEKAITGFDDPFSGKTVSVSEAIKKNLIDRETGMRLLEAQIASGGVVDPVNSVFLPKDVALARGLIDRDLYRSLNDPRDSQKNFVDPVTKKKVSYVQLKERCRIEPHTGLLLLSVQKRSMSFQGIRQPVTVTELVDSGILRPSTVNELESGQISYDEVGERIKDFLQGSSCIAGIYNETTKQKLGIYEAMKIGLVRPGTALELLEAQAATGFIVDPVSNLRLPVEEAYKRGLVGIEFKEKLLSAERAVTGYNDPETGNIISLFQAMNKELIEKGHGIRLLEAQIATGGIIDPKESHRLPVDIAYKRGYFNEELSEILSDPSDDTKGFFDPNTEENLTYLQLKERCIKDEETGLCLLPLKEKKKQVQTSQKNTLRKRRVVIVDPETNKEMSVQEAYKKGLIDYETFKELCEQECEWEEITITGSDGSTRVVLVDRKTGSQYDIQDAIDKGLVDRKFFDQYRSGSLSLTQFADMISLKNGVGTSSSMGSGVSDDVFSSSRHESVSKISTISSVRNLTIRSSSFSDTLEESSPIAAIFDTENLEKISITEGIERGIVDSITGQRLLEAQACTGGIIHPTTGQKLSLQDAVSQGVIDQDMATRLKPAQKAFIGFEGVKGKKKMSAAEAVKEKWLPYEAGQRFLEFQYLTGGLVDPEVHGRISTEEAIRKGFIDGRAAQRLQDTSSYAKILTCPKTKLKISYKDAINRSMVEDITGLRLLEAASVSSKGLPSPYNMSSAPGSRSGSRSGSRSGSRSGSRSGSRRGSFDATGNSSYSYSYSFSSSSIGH
UniProt P60842: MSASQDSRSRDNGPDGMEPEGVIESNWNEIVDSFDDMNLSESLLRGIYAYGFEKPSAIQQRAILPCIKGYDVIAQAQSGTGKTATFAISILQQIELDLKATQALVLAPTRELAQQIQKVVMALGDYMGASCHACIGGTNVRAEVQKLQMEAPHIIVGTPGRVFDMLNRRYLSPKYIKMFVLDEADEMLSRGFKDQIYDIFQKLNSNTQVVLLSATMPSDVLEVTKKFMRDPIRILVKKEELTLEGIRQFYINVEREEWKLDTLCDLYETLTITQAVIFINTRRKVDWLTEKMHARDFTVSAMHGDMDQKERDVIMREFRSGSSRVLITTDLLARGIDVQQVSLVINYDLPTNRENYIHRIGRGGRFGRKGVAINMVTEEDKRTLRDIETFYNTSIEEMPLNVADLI
Isoform 2 of Spectrin beta chain, non-erythrocytic 1 (Q01082-3, form named): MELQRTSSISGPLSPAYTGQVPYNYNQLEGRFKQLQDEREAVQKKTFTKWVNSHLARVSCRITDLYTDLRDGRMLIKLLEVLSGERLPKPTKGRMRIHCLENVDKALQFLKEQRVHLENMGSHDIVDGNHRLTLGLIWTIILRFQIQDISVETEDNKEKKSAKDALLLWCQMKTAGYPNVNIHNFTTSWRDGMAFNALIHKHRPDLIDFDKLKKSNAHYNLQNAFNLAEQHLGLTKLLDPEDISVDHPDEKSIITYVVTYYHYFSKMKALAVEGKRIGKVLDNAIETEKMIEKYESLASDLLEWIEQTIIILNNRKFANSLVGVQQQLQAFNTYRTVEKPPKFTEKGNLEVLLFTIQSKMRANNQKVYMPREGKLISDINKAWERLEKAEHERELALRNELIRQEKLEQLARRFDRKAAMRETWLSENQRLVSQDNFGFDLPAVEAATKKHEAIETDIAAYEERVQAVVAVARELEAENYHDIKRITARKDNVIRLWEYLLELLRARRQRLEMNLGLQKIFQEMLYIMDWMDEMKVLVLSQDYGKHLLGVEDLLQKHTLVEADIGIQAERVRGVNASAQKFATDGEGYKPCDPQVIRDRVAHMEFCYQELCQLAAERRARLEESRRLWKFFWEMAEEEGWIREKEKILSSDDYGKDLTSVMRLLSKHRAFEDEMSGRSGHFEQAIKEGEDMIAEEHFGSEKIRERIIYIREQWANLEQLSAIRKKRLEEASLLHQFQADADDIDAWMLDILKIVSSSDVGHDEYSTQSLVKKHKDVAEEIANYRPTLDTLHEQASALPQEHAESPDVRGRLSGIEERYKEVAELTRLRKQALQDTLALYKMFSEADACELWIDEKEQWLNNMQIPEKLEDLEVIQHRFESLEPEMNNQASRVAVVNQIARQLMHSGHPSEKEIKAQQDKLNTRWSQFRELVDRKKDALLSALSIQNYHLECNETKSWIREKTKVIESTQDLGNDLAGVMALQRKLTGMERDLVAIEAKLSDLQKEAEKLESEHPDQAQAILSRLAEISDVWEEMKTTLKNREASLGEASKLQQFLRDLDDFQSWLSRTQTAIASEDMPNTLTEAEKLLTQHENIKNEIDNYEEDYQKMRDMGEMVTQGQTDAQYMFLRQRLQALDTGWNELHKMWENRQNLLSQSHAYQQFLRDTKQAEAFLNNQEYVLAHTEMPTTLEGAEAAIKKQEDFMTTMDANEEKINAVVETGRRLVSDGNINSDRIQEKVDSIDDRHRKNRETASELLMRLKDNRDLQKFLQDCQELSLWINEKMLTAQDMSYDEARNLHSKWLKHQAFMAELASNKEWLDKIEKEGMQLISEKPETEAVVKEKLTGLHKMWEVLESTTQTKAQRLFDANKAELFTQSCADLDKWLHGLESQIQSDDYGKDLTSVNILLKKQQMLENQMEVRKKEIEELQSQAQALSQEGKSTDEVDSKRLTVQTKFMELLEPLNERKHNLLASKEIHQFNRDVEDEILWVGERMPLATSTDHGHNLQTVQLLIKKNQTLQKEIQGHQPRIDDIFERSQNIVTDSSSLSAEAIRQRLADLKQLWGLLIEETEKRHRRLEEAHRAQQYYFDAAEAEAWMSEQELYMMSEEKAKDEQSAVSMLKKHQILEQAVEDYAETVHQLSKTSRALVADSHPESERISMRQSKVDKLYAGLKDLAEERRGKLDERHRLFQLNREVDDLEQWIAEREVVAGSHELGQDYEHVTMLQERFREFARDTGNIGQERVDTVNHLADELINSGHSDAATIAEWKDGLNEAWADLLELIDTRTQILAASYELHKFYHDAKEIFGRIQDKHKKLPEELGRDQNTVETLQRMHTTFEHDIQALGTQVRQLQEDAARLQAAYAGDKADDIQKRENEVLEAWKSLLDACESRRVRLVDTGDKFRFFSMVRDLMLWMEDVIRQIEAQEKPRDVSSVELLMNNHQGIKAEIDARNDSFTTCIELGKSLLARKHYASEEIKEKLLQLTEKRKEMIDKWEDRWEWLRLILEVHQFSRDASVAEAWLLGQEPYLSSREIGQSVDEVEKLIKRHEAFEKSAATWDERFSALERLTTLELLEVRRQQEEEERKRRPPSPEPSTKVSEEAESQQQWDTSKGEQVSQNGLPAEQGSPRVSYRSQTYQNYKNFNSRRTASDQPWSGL
UniProt Q5VTE0: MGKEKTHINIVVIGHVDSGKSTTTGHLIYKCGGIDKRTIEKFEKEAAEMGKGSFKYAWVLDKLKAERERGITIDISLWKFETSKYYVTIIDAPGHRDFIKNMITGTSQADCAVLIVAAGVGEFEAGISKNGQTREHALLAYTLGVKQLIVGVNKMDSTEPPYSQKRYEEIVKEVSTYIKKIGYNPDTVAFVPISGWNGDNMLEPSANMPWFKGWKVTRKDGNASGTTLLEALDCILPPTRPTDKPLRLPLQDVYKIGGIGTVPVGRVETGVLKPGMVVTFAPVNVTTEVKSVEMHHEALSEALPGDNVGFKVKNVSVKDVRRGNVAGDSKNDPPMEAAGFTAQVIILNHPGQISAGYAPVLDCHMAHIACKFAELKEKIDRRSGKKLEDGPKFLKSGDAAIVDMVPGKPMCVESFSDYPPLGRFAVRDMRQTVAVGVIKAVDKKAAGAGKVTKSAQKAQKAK
UniProt Q9Y2H1: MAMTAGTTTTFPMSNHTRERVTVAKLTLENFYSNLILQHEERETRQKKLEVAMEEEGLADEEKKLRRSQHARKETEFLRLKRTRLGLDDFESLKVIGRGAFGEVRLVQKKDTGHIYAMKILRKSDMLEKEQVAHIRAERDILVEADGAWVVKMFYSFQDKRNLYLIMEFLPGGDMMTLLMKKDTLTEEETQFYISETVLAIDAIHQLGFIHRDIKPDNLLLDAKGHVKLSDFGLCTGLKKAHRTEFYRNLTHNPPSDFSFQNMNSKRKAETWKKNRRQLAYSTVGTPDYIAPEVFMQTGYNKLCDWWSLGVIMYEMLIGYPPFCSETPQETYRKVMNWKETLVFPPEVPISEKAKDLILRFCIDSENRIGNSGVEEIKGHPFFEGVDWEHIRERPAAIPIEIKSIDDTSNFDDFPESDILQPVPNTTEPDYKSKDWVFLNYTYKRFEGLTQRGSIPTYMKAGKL

Results are given in words; binding and its absence hold for the method and conditions named. In cells and extracts the contact can be indirect. These calls come from enrichment with a bait or labelling near it, and not all partners need be listed. Sequences can lack the tags named with a protein.

This assay concerns the target T1, Flag-USP40 (in HLMVECs) (human) (UniProt Q9NVE5).
T1 sequence: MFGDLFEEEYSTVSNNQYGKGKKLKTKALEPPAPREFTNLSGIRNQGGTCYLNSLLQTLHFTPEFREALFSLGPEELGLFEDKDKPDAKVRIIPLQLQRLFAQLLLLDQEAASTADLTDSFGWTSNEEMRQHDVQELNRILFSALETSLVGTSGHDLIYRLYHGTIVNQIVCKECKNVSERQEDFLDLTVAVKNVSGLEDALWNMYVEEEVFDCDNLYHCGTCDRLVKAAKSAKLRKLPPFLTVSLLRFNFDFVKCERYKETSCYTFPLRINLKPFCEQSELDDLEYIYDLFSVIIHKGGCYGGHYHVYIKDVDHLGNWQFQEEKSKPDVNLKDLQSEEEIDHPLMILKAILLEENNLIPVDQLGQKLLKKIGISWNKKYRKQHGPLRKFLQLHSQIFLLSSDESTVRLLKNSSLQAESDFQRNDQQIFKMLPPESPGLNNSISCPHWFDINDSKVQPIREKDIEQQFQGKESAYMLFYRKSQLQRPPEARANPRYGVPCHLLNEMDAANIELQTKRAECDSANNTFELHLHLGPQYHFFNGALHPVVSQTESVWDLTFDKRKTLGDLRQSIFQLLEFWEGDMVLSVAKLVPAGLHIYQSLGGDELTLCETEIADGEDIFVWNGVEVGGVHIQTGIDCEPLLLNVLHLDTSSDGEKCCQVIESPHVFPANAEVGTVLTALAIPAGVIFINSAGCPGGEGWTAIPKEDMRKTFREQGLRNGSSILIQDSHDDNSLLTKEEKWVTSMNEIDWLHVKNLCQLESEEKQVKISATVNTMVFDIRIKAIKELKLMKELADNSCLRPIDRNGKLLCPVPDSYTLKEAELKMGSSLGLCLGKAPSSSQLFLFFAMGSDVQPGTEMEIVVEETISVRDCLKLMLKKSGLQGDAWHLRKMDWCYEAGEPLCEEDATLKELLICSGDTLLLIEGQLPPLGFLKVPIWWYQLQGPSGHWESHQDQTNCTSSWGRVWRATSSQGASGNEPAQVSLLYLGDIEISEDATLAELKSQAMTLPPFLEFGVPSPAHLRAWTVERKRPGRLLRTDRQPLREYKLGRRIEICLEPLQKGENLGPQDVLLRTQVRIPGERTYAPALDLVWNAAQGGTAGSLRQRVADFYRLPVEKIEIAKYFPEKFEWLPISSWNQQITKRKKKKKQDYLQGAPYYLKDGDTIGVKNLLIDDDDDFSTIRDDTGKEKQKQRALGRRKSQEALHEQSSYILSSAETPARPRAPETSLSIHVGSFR
The assay is described as follows: affinity purification with mass spectrometry; Flag-USP40 immunoprecipitated from transfected HLMVECs with FLAG-M2 affinity gel; eluted under reducing conditions, SDS-PAGE, Coomassie, bands excised, in-gel trypsin digestion, LC-MS.
For the substance “6-phosphofructo-2-kinase (from UniProt Q16875 1-520)”, the binding result was “binds”. “26 S proteasome non-ATPase regulatory subunit 2 (from UniProt Q13200 1-908)”: the binding result is “binds”.

In the case of “78 kDa glucose-regulated protein (from UniProt P11021 19-654)”, the binding entry is given as “binds”.

Take “ADP-ribosylation factor 3 (from UniProt P61204 1-181)”: the binding entry is reported as “binds”. On to “ADP-ribosylation factor 4 (from UniProt P18085 1-180)”, for which the binding entry was “binds”. For “ATP synthase subunit alpha, mitochondrial (from UniProt P25705 44-553)”, the binding result is recorded as “binds”. “ATP-dependent RNA helicase DDX3X (from UniProt O00571 1-662)”: the binding result is recorded as “binds”. For “Alpha-actinin-1 (from UniProt P12814 1-892)”, the binding entry is recorded as “binds”.

With “Alpha-actinin-4 (from UniProt O43707 1-911)”, the binding result is “binds”.

As for Annexin A2 (from UniProt P07355 1-339), the binding entry is given as “binds”. Take “Bcl-2-associated transcription factor 1 (from UniProt Q9NYF8 1-920)”: the binding result is recorded as “binds”.

Consider “Capping protein (Actin filament) muscle Z-line, beta (from UniProt P47756 1-272)”, for which the binding result is “binds”. In the case of Caveolin-1 (from UniProt Q03135 1-178) it was “binds”. Turning to “Clathrin heavy chain 1 (from UniProt Q00610 1-1675)”, the binding entry was “binds”. For Cofilin-1 (from UniProt P23528 1-166), the binding entry was “binds”. As to “Cytoskeleton-associated protein 4 (from UniProt Q07065 1-602)”, the binding entry is on record as “binds”. The entry for “Dedicator of cytokinesis protein 4 (from UniProt Q8N1I0 1-1966)” is “binds”; for “Desmoglein-1 (from UniProt Q02413 50-1049)” it is “binds”. For “Desmoplakin (from UniProt P15924 1-2871)”, the binding result is “binds”. Consider Drebrin (from UniProt Q16643 1-649), for which the binding entry is recorded as “binds”. With “E3 ubiquitin-protein ligase TRIM21 (from UniProt P19474 1-475)”, the binding entry is reported as “binds”. As for “Endoplasmin (from UniProt P14625 22-803)”, the binding result is on record as “binds”. On to “Eukaryotic initiation factor 4A-I (from UniProt P60842 1-406)”, for which the binding entry is “binds”. On to “F-actin-capping protein subunit alpha-2 (from UniProt P47755 1-286)”, for which the binding entry is listed as “binds”.

Take “Filaggrin-2 (from UniProt Q5D862 1-2391)”: the binding result is “binds”. Consider Filamin-A (from UniProt P21333 1-2647), for which the binding entry is recorded as “binds”. In the case of Filamin-B (from UniProt O75369 1-2602) it was “binds”; in that of Filamin-C (from UniProt Q14315 1-2725), “binds”; in that of “GTPase IMAP family member 1 (from UniProt Q8WWP7 1-306)”, “binds”. For the substance Gelsolin (from UniProt P06396 28-782), the binding result is listed as “binds”.

“Glia maturation factor beta (from UniProt P60983 1-142)”: the binding entry is recorded as “binds”. “Glyceraldehyde-3-phosphate dehydrogenase (from UniProt P04406 1-335)”: the binding result is on record as “binds”. In the case of “Heat shock cognate 71 kDa protein (from UniProt P11142 1-646)” it was “binds”; in that of “Heat shock protein HSP 90-beta (endogenous, HLMVEC) (from UniProt P08238 1-724)”, “binds”; in that of “Heterogeneous nuclear ribonucleoprotein K (from UniProt P61978 1-463)”, “binds”. With Hornerin (from UniProt Q86YZ3 1-2850), the binding entry is recorded as “binds”. In the case of “Isoform 2 of Spectrin beta chain, non-erythrocytic 1 (from UniProt Q01082-3 1-2155)” it was “binds”. With “Isoform 2 of Tropomyosin alpha-3 chain (from UniProt P06753-2 1-248)”, the binding entry is on record as “binds”.

“Isoform 3 of Unconventional myosin-Ic (from UniProt O00159-3 1-1044)”: the binding entry is listed as “binds”.

In the case of “Isoform 4 of 40 S ribosomal protein S24 (from UniProt P62847-4 1-289)”, the binding entry is “binds”. With “Isoform 4 of LIM domain and actin-binding protein 1 (from UniProt Q9UHB6-4 1-760)”, the binding result was “binds”.

With “Major vault protein (from UniProt Q14764 1-893)”, the binding entry is “binds”. The entry for “Methylosome protein 50 (from UniProt Q9BQA1 1-342)” is “binds”. The entry for “Myosin light polypeptide 6 (from UniProt P60660 1-151)” is “binds”; for “Myosin regulatory light chain 12B (from UniProt O14950 1-172)” it is “binds”; for Myosin-9 (from UniProt P35579 1-1960) it is “binds”. Turning to Myosin-10 (from UniProt P35580 1-1976), the binding result is recorded as “binds”. With Nestin (from UniProt P48681 1-1621), the binding result is “binds”. On to Neurabin-2 (from UniProt Q96SB3 1-817), for which the binding entry is recorded as “binds”. Regarding “Plasminogen activator inhibitor 1 (from UniProt P05121 24-402)”, the binding result is “binds”. As to “Protein arginine N-methyltransferase 5 (from UniProt O14744 1-637)”, the binding entry is reported as “binds”. For the substance “Putative elongation factor 1-alpha-like 3 (from UniProt Q5VTE0 1-462)”, the binding result is “binds”. For the substance “Pyruvate kinase PKM (from UniProt P14618 1-531)”, the binding result is given as “binds”. Take “Serine/threonine-protein kinase 38 (from UniProt Q15208 1-465)”: the binding entry was “binds”. The entry for “Serine/threonine-protein kinase 38-like (from UniProt Q9Y2H1 1-464)” is “binds”. As for “Spectrin alpha chain, non-erythrocytic 1 (from UniProt Q13813 1-2472)”, the binding result was “binds”.

For “Splicing factor 3B subunit 3 (from UniProt Q15393 1-1217)”, the binding entry is given as “binds”. “Supervillin (from UniProt O95425 1-2214)”: the binding result is listed as “binds”. The entry for Talin-1 (from UniProt Q9Y490 1-2541) is “binds”; for “Thrombospondin-1 (from UniProt P07996 19-1170)” it is “binds”. Take “Tubulin alpha-1C chain (from UniProt Q9BQE3 1-449)”: the binding entry is listed as “binds”.

As to “Tubulin beta chain (from UniProt P07437 1-444)”, the binding result was “binds”.

For “Ubiquitin-like protein ISG15 (from UniProt P05161 1-157)”, the binding entry is “binds”. Vimentin (from UniProt P08670 1-466): the binding entry is “binds”. For the substance “Zinc finger protein 185 (from UniProt O15231 1-689)”, the binding result was “binds”.
